From the supplement of paper PMC4604168 (melanoma cell lines) come the findings set out here.

Structures are written as SMILES. The list shows a part of the results. Repeats are few or missing, and single values can be far off.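 Imaging used 1,536-well plates; nuclei positive for cleaved PARP by antibody were divided by total DNA-stained nuclei to yield the apoptosis fraction. Doses for screening kept most cells viable, and cell lines differ markedly in resting and induced cleaved-PARP levels.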

The experiment has as its system CBRC016 (line from a melanoma biopsy). Kind of experiment: cleaved PARP positive nuclei fraction relative to DMSO control; melanoma cells; higher = more apoptosis. As to conditions: library dose: low library concentration; 72 h.
Regarding `CN(C)S(=O)(=O)c1ccc2c(c1)/C(=C/c1cc3c([nH]1)CCCC3)C(=O)N2` + COc1cc2ncnc(Nc3ccc(Oc4ccccc4)cc3)c2cc1OC [SrcI1] (first compound 0.4 µM, partner dose 2 µM), the “cleaved PARP positive nuclei fraction” value was found to be 108%. Take `NCC(=O)Nc1ccc(-n2nc(C(F)(F)F)cc2-c2ccc3c(ccc4ccccc43)c2)cc1` + Cn1cc(/C=C2\C(=O)Nc3cccnc32)c2ccccc21 [GW441756] (first compound 1 µM, partner dose 0.4 µM): the “cleaved PARP positive nuclei fraction” value was 22.7%. `O=C(Nc1ccccc1)c1cc([N+](=O)[O-])ccc1Cl` + Oc1cc(-c2nc(-c3ccccc3)[nH]c2-c2ccncc2)ccc1Cl [L779450] (first compound 2 µM, partner dose 0.2 µM): the “cleaved PARP positive nuclei fraction” value is 95.4%. For `O=C1NC(=O)/C(=C/c2ccc(-c3ccc(F)cc3O)o2)S1` + c1cc(-c2cnn3cc(-c4ccc(OCCN5CCCCC5)cc4)cnc23)ccn1 [Dorsomorphin] (first compound 1 µM, partner dose 0.4 µM), the “cleaved PARP positive nuclei fraction” value came out at 54.6%. As for `COC(=O)c1sccc1S(=O)(=O)Nc1ccc(Nc2ccccc2)cc1OC` + COc1ccc(COc2ccc(Cc3cnc(N)nc3N)cc2OC)cc1 [GW2580] (first compound 1 µM, partner dose 1 µM), the figure is 110%. Turning to `COc1cc2c(Oc3ccc4[nH]c(C)cc4c3F)ncnc2cc1OCCCN1CCCC1` [cediranib] + CCN(CC)CCCCNc1ncc2cc(-c3cc(OC)cc(OC)c3)c(NC(=O)NC(C)(C)C)nc2n1 [PD173074] (first compound 0.4 µM, partner dose 0.1 µM), the “cleaved PARP positive nuclei fraction” value was 19.9%. In the case of `O=C1NC(=O)/C(=C/c2ccc(-c3ccc(F)cc3O)o2)S1` + COc1cc(N2CCC(N3CCN(C)CC3)CC2)ccc1Nc1ncc(Cl)c(Nc2ccccc2S(=O)(=O)C(C)C)n1 [NVP-TAE684] (first compound 1 µM, partner dose 0.08 µM), the “cleaved PARP positive nuclei fraction” value is 73.3%. `O=C(O)c1ccc(-c2c[nH]c3ncc(-c4ccccc4)cc23)cc1C1CCCC1` + O=C(O)C(=O)Nc1sc2c(c1C(=O)O)CCNC2 [TCS401] (first compound 0.16 µM, partner dose 1.66667 µM): the “cleaved PARP positive nuclei fraction” value was 115%. As for `CN(NC(=O)CC(=O)NN(C)C(=S)c1ccccc1)C(=S)c1ccccc1` + CCN(CC)CCCCNc1ncc2cc(-c3cc(OC)cc(OC)c3)c(NC(=O)NC(C)(C)C)nc2n1 [PD173074] (first compound 0.006 µM, partner dose 0.1 µM), the figure is 151%; as for `NCC(=O)Nc1ccc(-n2nc(C(F)(F)F)cc2-c2ccc3c(ccc4ccccc43)c2)cc1` + Cc1cc([N+](=O)[O-])ccc1NS(=O)(=O)c1cc(Cl)ccc1Cl [FH535] (first compound 1 µM, partner dose 1 µM), 2730%; as for `COc1ccc(COc2ccc(Cc3cnc(N)nc3N)cc2OC)cc1` + O=S(=O)(c1ccccc1)N(CC(F)(F)F)c1ccc(C(O)(C(F)(F)F)C(F)(F)F)cc1 [T0901317] (first compound 1 µM, partner dose 1.4 µM), 18%.

As for `O=C(Nc1ccccc1)c1cc([N+](=O)[O-])ccc1Cl` + COc1ccc(COc2ccc(Cc3cnc(N)nc3N)cc2OC)cc1 [GW2580] (first compound 2 µM, partner dose 1 µM), the “cleaved PARP positive nuclei fraction” value stood at 60.1%. Take `NCC(=O)Nc1ccc(-n2nc(C(F)(F)F)cc2-c2ccc3c(ccc4ccccc43)c2)cc1` + COc1ccc(-c2ccc3c(N4CCOCC4)nc(N4C[C@@H](C)O[C@@H](C)C4)nc3n2)cc1CO [KU0063794] (first compound 1 µM, partner dose 0.02 µM): the “cleaved PARP positive nuclei fraction” value is 84%. Regarding `COc1cc2c(Oc3ccc4[nH]c(C)cc4c3F)ncnc2cc1OCCCN1CCCC1` [cediranib] + COc1ccc(-c2ccc3c(N4CCOCC4)nc(N4C[C@@H](C)O[C@@H](C)C4)nc3n2)cc1CO [KU0063794] (first compound 0.4 µM, partner dose 0.02 µM), the “cleaved PARP positive nuclei fraction” value was 92.8%. As for `O=S(=O)(c1ccccc1)N(CC(F)(F)F)c1ccc(C(O)(C(F)(F)F)C(F)(F)F)cc1` + CC(C)CCN1c2nc(Nc3cc(F)c(O)c(F)c3)ncc2N(C)C(=O)C1C [BID1870] (first compound 1.4 µM, partner dose 0.2 µM), the “cleaved PARP positive nuclei fraction” value turned out to be 74.3%. As to `NCC(=O)Nc1ccc(-n2nc(C(F)(F)F)cc2-c2ccc3c(ccc4ccccc43)c2)cc1` + COc1cc2ncnc(Nc3ccc(Oc4ccccc4)cc3)c2cc1OC [SrcI1] (first compound 1 µM, partner dose 2 µM), the “cleaved PARP positive nuclei fraction” value stood at 63.7%. Turning to `NCC(=O)Nc1ccc(-n2nc(C(F)(F)F)cc2-c2ccc3c(ccc4ccccc43)c2)cc1` + O=C1NC(=O)/C(=C/c2ccc(-c3ccc(F)cc3O)o2)S1 [AS252424] (first compound 1 µM, partner dose 1 µM), the “cleaved PARP positive nuclei fraction” value was 71.2%. The same measure for `COc1cc2ncnc(Nc3ccc(Oc4ccccc4)cc3)c2cc1OC` + c1cc(-c2cnn3cc(-c4ccc(OCCN5CCCCC5)cc4)cnc23)ccn1 [Dorsomorphin] (first compound 2 µM, partner dose 0.4 µM): 88.4%. Regarding `CCc1ccc(CCOc2ccc(CC3SC(=O)NC3=O)cc2)nc1` (stereo unspecified) [pioglitazone] + COC(=O)c1sccc1S(=O)(=O)Nc1ccc(Nc2ccccc2)cc1OC [GSK0660] (first compound 2 µM, partner dose 1 µM), the “cleaved PARP positive nuclei fraction” value came to 74%. Consider `O=C(Nc1ccccc1)c1cc([N+](=O)[O-])ccc1Cl` + COc1ccc2c(c1)CCC1C2CCC2(C)C(NCCCCCCN3C(=O)C=CC3=O)CCC12 [U73122] (first compound 2 µM, partner dose 0.4 µM), for which the “cleaved PARP positive nuclei fraction” value amounted to 182%.

As to `COc1cc2c(Oc3ccc4[nH]c(C)cc4c3F)ncnc2cc1OCCCN1CCCC1` [cediranib] + O=C1NC(=O)/C(=C/c2ccc(-c3ccc(F)cc3O)o2)S1 [AS252424] (first compound 0.4 µM, partner dose 1 µM), the “cleaved PARP positive nuclei fraction” value is 52.4%. The same measure for `O=C(O)c1ccc(-c2c[nH]c3ncc(-c4ccccc4)cc23)cc1C1CCCC1` + CCc1ccc(CCOc2ccc(CC3SC(=O)NC3=O)cc2)nc1 [pioglitazone] (first compound 0.16 µM, partner dose 2 µM): 79.5%; for `COc1cc2ncnc(Nc3ccc(Oc4ccccc4)cc3)c2cc1OC` + Oc1cc(-c2nc(-c3ccccc3)[nH]c2-c2ccncc2)ccc1Cl [L779450] (first compound 2 µM, partner dose 0.2 µM): 80%; for `Oc1nc(-c2ccc(C(F)(F)F)cc2)nc2c1CSCC2` + O=c1cc(-c2cccc3c2Sc2ccccc2S3)oc(N2CCOCC2)c1 [KU55933] (first compound 2 µM, partner dose 1 µM): 90.9%. For the compound `COc1ccc(-c2ccc3c(N4CCOCC4)nc(N4C[C@@H](C)O[C@@H](C)C4)nc3n2)cc1CO` + O=S(=O)(c1ccccc1)N(CC(F)(F)F)c1ccc(C(O)(C(F)(F)F)C(F)(F)F)cc1 [T0901317] (first compound 0.02 µM, partner dose 1.4 µM), the “cleaved PARP positive nuclei fraction” value turned out to be 71.7%.

For `N#Cc1c(O)c2c(-c3ccc(-c4ccccc4O)cc3)csc2[nH]c1=O` + Cn1cc(/C=C2\C(=O)Nc3cccnc32)c2ccccc21 [GW441756] (first compound 2 µM, partner dose 0.4 µM), the “cleaved PARP positive nuclei fraction” value turned out to be 63.4%.

With `NCC(=O)Nc1ccc(-n2nc(C(F)(F)F)cc2-c2ccc3c(ccc4ccccc43)c2)cc1` + O=C(O)C(=O)Nc1sc2c(c1C(=O)O)CCNC2 [TCS401] (first compound 1 µM, partner dose 1.66667 µM), the “cleaved PARP positive nuclei fraction” value stood at 152%.

For the compound `NCC(=O)Nc1ccc(-n2nc(C(F)(F)F)cc2-c2ccc3c(ccc4ccccc43)c2)cc1` + CCc1ccc(CCOc2ccc(CC3SC(=O)NC3=O)cc2)nc1 [pioglitazone] (first compound 1 µM, partner dose 2 µM), the “cleaved PARP positive nuclei fraction” value came to 38.4%. In the case of `O=C(Nc1ccccc1)c1cc([N+](=O)[O-])ccc1Cl` + CC(C)CCN1c2nc(Nc3cc(F)c(O)c(F)c3)ncc2N(C)C(=O)C1C [BID1870] (first compound 2 µM, partner dose 0.2 µM), the “cleaved PARP positive nuclei fraction” value came to 88.9%.

On to `O=C(O)c1ccc(-c2c[nH]c3ncc(-c4ccccc4)cc23)cc1C1CCCC1` + Oc1cc(-c2nc(-c3ccccc3)[nH]c2-c2ccncc2)ccc1Cl [L779450] (first compound 0.16 µM, partner dose 0.2 µM), for which the “cleaved PARP positive nuclei fraction” value was found to be 117%. As to `CN(C)S(=O)(=O)c1ccc2c(c1)/C(=C/c1cc3c([nH]1)CCCC3)C(=O)N2` + COc1ccc(COc2ccc(Cc3cnc(N)nc3N)cc2OC)cc1 [GW2580] (first compound 0.4 µM, partner dose 1 µM), the “cleaved PARP positive nuclei fraction” value worked out at 66.5%. As for `COc1ccc(COc2ccc(Cc3cnc(N)nc3N)cc2OC)cc1` + c1cc(-c2cnn3cc(-c4ccc(OCCN5CCCCC5)cc4)cnc23)ccn1 [Dorsomorphin] (first compound 1 µM, partner dose 0.4 µM), the “cleaved PARP positive nuclei fraction” value was 60.1%. For `COc1ccc(-c2ccc3c(N4CCOCC4)nc(N4C[C@@H](C)O[C@@H](C)C4)nc3n2)cc1CO` + Oc1cc(-c2nc(-c3ccccc3)[nH]c2-c2ccncc2)ccc1Cl [L779450] (first compound 0.02 µM, partner dose 0.2 µM), the “cleaved PARP positive nuclei fraction” value stood at 153%. The same measure for `CCN(CC)CCCCNc1ncc2cc(-c3cc(OC)cc(OC)c3)c(NC(=O)NC(C)(C)C)nc2n1` + Cc1cc([N+](=O)[O-])ccc1NS(=O)(=O)c1cc(Cl)ccc1Cl [FH535] (first compound 0.1 µM, partner dose 1 µM): 2810%.

In the case of `O=S(=O)(c1ccccc1)N(CC(F)(F)F)c1ccc(C(O)(C(F)(F)F)C(F)(F)F)cc1` + Cc1cc([N+](=O)[O-])ccc1NS(=O)(=O)c1cc(Cl)ccc1Cl [FH535] (first compound 1.4 µM, partner dose 1 µM), the “cleaved PARP positive nuclei fraction” value is 929%. As to `COc1cc2ncnc(Nc3ccc(Oc4ccccc4)cc3)c2cc1OC` + O=C(O)C(=O)Nc1sc2c(c1C(=O)O)CCNC2 [TCS401] (first compound 2 µM, partner dose 1.66667 µM), the “cleaved PARP positive nuclei fraction” value turned out to be 128%.
